# Assay results: patent US11951204B2, “Cell-penetrating peptides and composition including the same” (S-SKIN. CO., LTD., priority 2022, dated 2024)
# Where “and” joins values, the source holds several entries; their conditions need not be identical. Equal entries are not always repeated. For some of these results: At least one peptide structure holds a part that was inferred or is arguable (an end, a ring closure or a residue). Some of these results come from one statement about several compounds together. Ends that are not written are not given here. Peptide text beside a SMILES is read from it. * marks the point of attachment. FITC = O=C1OC2(c3ccc(O)cc3Oc3cc(O)ccc32)c2ccc(NC(=S)*)cc21; Palmitoyl = CCCCCCCCCCCCCCCC(=O)*; Ahx = NCCCCCC(=O)O
# Legend:
# Type in all cases: cell-based, human
# [1] = tested on: collagen synthesis in HDF-N cells; test: Synthesis of collagen, PIP (procollagen Type 1C-peptide) ELISA; settings: 12.5 μM, 24 hours
# Procedure: HDF-N cells were inoculated at a concentration of 1×10^4 cells/well into a 96-well plate and incubated for 24 hours. Then, the medium was removed, followed by washing twice with PBS, and replaced with a serum-free medium. Thereafter, 12.5 μM KTTKS (SEQ ID NO: 5), Spep001-KTTKS (SEQ ID NO: 6) and pal-KTTKS were added to each well and then incubated for 24 hours. Then, 10 μL of the cell culture fluid was obtained and centrifuged at 800 rpm for 5 minutes. Thereafter, the degree of synthesis of collagen was checked using a PIP (procollagen Type 1C-peptide) ELISA kit (MK101, Takara), and the result thereof is shown in FIG. 10 and Table 8 below.
# HDF-N = test: Cytotoxicity assay of difunctional peptide (WST-1, microscopy); settings: compared to control (0 μM)
# HDF-N cells = settings: 12.5 μM
# Procedure: Cytotoxicity of the cell-penetrating multifunctional peptide according to Example 1 was checked. Specifically, HaCaT cells (human keratinocytes) were inoculated at a concentration of 1.5×10^4 cells/well into a 96-well plate and incubated for 24 hours. Then, the medium was removed, followed by washing once with PBS, and replaced with a serum-free medium. The cells were treated with Spep001 (SEQ ID NO: 1), Spep002 (SEQ ID NO: 8) or Spep003 (SEQ ID NO: 9) at a concentration of 0 μM, 25 μM, 50 μM, 100 μM or 200 μM and then further incubated for 24 hours. Herein, culture conditions were maintained at 37° C. with 5% CO2.
# Also, at the time of completion of incubation, a WST-1 assay (Water Soluble Tetrazolium salt-1, EZ-assay kit, DoGenBio) was conducted. Specifically, 100 μL of a WST-1 solution was added to the well of cells after the completion of further incubation and then incubated for 3 hours. Thereafter, the absorbance at 450 nm was measured using a microplate spectrophotometer (Multiskan™ GO, thermo), and the result thereof is shown in FIG. 2B and Table 2 below.
# HDF-N cells were treated with 12.5 μM KTTKS (SEQ ID NO: 5), Spep001-KTTKS (SEQ ID NO: 6) and pal-KTTKS which are peptides fabricated in Example 9. The appearance and proliferation rate of the cells were measured as in Example 3, and the results thereof are shown in FIG. 9A(i) to FIG. 9A(iv), FIG. 9B and Table 7 below.
# HaCaT cells = test: Dependence of cell penetration on temperature (flow cytometry); settings: 4° C. versus 37° C., 10 μM
Compound,amount of collagen synthesized based on the control [1] [%],decrease in FITC fluorescence intensity at low incubation temperature (HaCaT cells) [%],further results
"CCCCCCCCCCCCCCCC(=O)N[C@@H](CCCCN)C(=O)N[C@H](C(=O)N[C@H](C(=O)N[C@@H](CCCCN)C(=O)N[C@@H](CO)C(=O)O)[C@@H](C)O)[C@@H](C)O [Palmitoyl-KTTKS, Pal-KTTKS] (Palmitoyl-KTTKS-OH)",148.66,–,PIP (collagen in cell culture fluid) ([1]; listed as Pal-KTTKS): 188.84 ± 31.44 ng/mL; PIP (collagen in cell culture fluid) ([1]; listed as pal-KTTKS): 188.84 ng/mL
"RLRLRQRRRRKTTKS [Spep001-KTTKS, RLRLRQRRRRKTTKS]",343.47,–,cell proliferation (in words) (HDF-N): remarkably increases cell proliferation; PIP (collagen in cell culture fluid) [1]: 436.32 ng/mL and 436.32 ± 39.51 ng/mL; increase of cell growth rate compared to KTTKS and pal-KTTKS (HDF-N cells): about two times
"{FITC-Ahx}-KRRWRKIPKR [FITC-Spep002, Spep002 labelled with FITC at the N-terminal amine group]",–,≥ 80,–
"{FITC-Ahx}-RKRWLRKPRP [FITC-Spep003, Spep003 labelled with FITC at the N-terminal amine group]",–,≥ 80,–
"{FITC-Ahx}-RLRLRQRRRR [FITC-Spep001, Spep001 labelled with FITC at the N-terminal amine group]",–,≥ 80,–
